Assay results reported in patent EP3960748A1, “COMPOSITION FOR THE TREATMENT OF THE SIDE EFFECTS OF RADIOTHERAPY AND/OR CHEMOTHERAPY” (Fundación Profesor Novoa Santos, priority 2019, dated 2020).
For at least one compound, name, drawing or mass did not settle the structure.

Legend:
Format in all cases: cell-based
[1] = tested on: IL-1β; assay: Gene expression analysis (qPCR) of IL-1β; conditions: Fig. 10; 10 µM for 72 hours; 55 Grays; normalized against HPRT1
Source text: (§1) Skin tissue biopsies from female patients of A Coruña University Hospital Complex - A Coruña Integrated Management Services (Complejo Hospitalario Universitario de A Coruña - Xerencia Xestión Integrada A Coruña (CHUAC-XXIAC)) were obtained from operations for the surgical removal of a benign pathology (fibroadenoma, samples consisting of untreated healthy skin) and from oncology interventions (samples consisting of skin subjected to radiotherapy and chemotherapy). Signed informed consent was received from each of the patients (2015/029, C.0003333, 2016/077). To isolate primary fibroblast from these samples, hypodermal fat was removed with the aid of a scalpel, and the epidermis was segmented into fragments of about 1x1 cm (explants). Lines were made with a scalpel on a 100 cm^2 adherent Petri dish creating a grid, and each of the explants was placed in the resulting intersections with the epidermis facing up and the dermis in contact with the dish. […] The working concentrations of said compounds were determined by means of literature review and cell viability assays (MTT). […]
(§2) For RNA extraction from the different cell types, TRI Reagent (MRC) was used following the manufacturer's instructions. […] The amount and quality of the obtained RNA was quantified in Nanodrop ND-1000. […]

[2] = tested on: p53; assay: Western blot of p53 in radiated fibroblasts
Source text: as §1

[3] = tested on: dermal fibroblasts; assay: Hematoxylin staining for phenotype determination; conditions: Fig. 3, 1 µM for 4 hours
[4] = tested on: p21; assay: Western blot of p21 in radiated fibroblasts; conditions: Fig. 7; post-radiation treatment for 72 hours; oleuropein 10 µM, BIRB796 2.5 µM; 55 Grays; relative to tubulin
Source text: as §1

[5] = tested on: p21; assay: Gene expression analysis (qPCR) of p21; conditions: 55 Grays, normalized against HPRT1
Source text: as §1, §2

[6] = tested on: Cx43; assay: Gene expression analysis (qPCR) of Cx43; conditions: Fig. 10; 10 µM for 72 hours; 55 Grays; normalized against HPRT1
[7] = tested on: gap junctions (GJs); assay: Cell coupling by dye coupling (5,6-carboxyfluorescein transfer); conditions: Fig. 3; dermal fibroblasts, 1 µM for 4 hours
[8] = tested on: MMP-3; assay: Gene expression analysis (qPCR) of MMP-3; conditions: Fig. 10; 10 µM for 72 hours; 55 Grays; normalized against HPRT1
Source text: as §1, §2

[9] = tested on: IL-6; assay: Gene expression analysis (qPCR) of IL-6; conditions: Fig. 10; 10 µM for 72 hours; 55 Grays; normalized against HPRT1
Source text: as §1, §2

[10] = tested on: dermal fibroblasts; assay: β-galactosidase senescence assay (X-Gal) in radiated fibroblasts

SMILES: C/C=C1/[C@H](O[C@@H]2O[C@H](CO)[C@@H](O)[C@H](O)[C@H]2O)OC=C(C(=O)OC)[C@H]1CC(=O)OCCc1ccc(O)c(O)c1 [oleuropein]
- expression levels of ILlb (RNA) [1]: reduces the expression levels
- levels of senescence factor p53 (immunoblot) ([2]; Fig. 4C, 10 µM for 48 hours, fibroblasts exposed to radiation (55 Grays, 30 minutes), comparator dasatinib 0.2 µM combined with 10 µM oleuropein): reduced the levels of senescence factor p53
- protein levels of p53 ([2]; Fig. 7, post-radiation treatment for 72 hours, oleuropein 10 µM, BIRB796 2.5 µM, 55 Grays, relative to tubulin): effectively reduced protein levels of both factors
- cellular morphology [3]: change in cellular morphology
- protein levels of p21 [4]: effectively reduced protein levels of both factors
- p21 mRNA level ([5]; Fig. 8, 72 hours, oleuropein 10 µM, BIRB796 2.5 µM): reduces the gene expression of senescence factor p21
- expression levels of p21 (RNA) ([5]; Fig. 10, 10 µM for 72 hours): reduces the expression levels
- expression levels of Cx43 (RNA) [6]: reduces the expression levels
- percentage of cells coupled through GJs [7]: greater coupling through GJs
- expression levels of MMP3 (RNA) [8]: reduces the expression levels
- expression levels of IL6 (RNA) [9]: reduces the expression levels
- ratio of senescent cells (intense blue signal) with respect to total cells ([10]; Fig. 4B, 10 µM for 72 hours after radiation, fibroblasts from a healthy donor, 55 Grays for about 30 minutes): reduced the percentage of senescence
- ratio of senescent cells with an intense blue signal with respect to total cells ([10]; Fig. 5A, 72 hours, oleuropein 10 µM, BIRB796 2.5 µM, fibroblasts from healthy skin, 55 Grays): able to lower the accumulation of senescent cells
